Experimental data: patent US9353110B2, “Fused heterocyclic compound” (Sumitomo Chemical Company, Limited, priority 2011, dated 2016)
Some of these results come from one statement about several compounds together. For at least one compound, name, drawing or mass did not settle the structure.

Experiments:
Type in all cases: in vivo
[1] = tested on: Aphis gossypii; test: Test Example 2: drench at foot of cucumber seedling against Aphis gossypii; details: 500 ppm, 5 ml drenched at foot of cucumber seedling, kept 7 days, inoculated with about 30 Aphis gossypii, examined after further 6 days
[2] = tested on: Nilaparvata lugens; test: Test Example 3: spray on rice seedling against Nilaparvata lugens; details: 500 ppm, 10 ml sprayed on rice seedling, 20 third-fourth instar larvae released, after 6 days
[3] = tested on: Bemisia tabaci; test: Test Example 5: spray on tomato seedling against Bemisia tabaci; details: 500 ppm, 20 ml/cup sprayed on tomato seedling with hatched instar larvae, after 7 days
[4] = tested on: Aphis gossypii; test: Test Example 1: foliar spray on cucumber seedling against Aphis gossypii; details: 500 ppm active ingredient, 20 ml sprayed on cucumber seedling inoculated with about 30 Aphis gossypii, 6 days after spraying
[5] = tested on: Nilaparvata lugens; test: Test Example 4: drench at foot of rice seedling against Nilaparvata lugens; details: 500 ppm, 5 ml drenched at foot of rice seedling, kept 7 days, 20 third-fourth instar larvae released, examined after further 6 days

Measured: control value

CCS(=O)(=O)c1cc(C(F)(F)F)cnc1-c1nc2cc(SC(F)(F)F)cnc2n1C [compound 44]
≥ 90%: [1] | [2] | [3] | [4] | [5]

CCS(=O)(=O)c1cccnc1-c1nc2cc([S+]([O-])C(F)(F)F)cnc2n1C (centres unmarked) [compound 20]
≥ 90%: [2] | [3] | [4]

CCS(=O)(=O)c1ccc[n+]([O-])c1-c1nc2cc(C(F)(F)F)c[n+]([O-])c2n1C [compound 511]
≥ 90%: [1] | [2] | [3] | [4]

CCS(=O)(=O)c1ccc[n+]([O-])c1-c1nc2cc(C(F)(F)F)cnc2n1C [compound 36]
≥ 90%: [1] | [2] | [3] | [4] | [5]

CCS(=O)(=O)c1cc(C(F)(F)F)c[n+]([O-])c1-c1nc2cc(C(F)(F)C(F)(F)F)c[n+]([O-])c2n1C [compound 524]
≥ 90%: [1] | [2] | [3] | [4] | [5]

CCS(=O)(=O)c1cc(C(F)(F)F)cnc1-c1nc2cc(C(F)(F)F)c(N(C)C)nc2n1C [compound 99]
≥ 90%: [1] | [2] | [3] | [4] | [5]

CCS(=O)(=O)c1cccnc1-c1nc2cc(C(F)(F)F)cnc2n1C [compound 3]
≥ 90%: [1] | [2] | [3] | [5]

CCS(=O)(=O)c1cc(C(F)(F)F)cnc1-c1nc2cc(C(F)(F)F)c(C(=O)O)nc2n1C [compound 521]
≥ 90%: [2] | [3] | [5]

CCS(=O)(=O)c1cc(C(F)(F)F)cnc1-c1nc2cc(C(F)(F)F)cnc2n1C [compound 5]
≥ 90%: [1] | [2] | [3] | [5]

CCS(=O)(=O)c1cc(C(F)(F)F)cnc1-c1nc2cc([S+]([O-])C(F)(F)F)cnc2n1C (centres unmarked) [compound 60]
≥ 90%: [1] | [2] | [3] | [4] | [5]

CCS(=O)(=O)c1cccnc1-c1nc2cc(C(F)(F)F)cc(S(=O)(=O)CC(F)(F)F)c2n1C [compound 518]
≥ 90%: [1] | [2] | [3] | [5]

CCS(=O)(=O)c1cc(C(F)(F)C(F)(F)F)cnc1-c1nc2cc(C(F)(F)F)cnc2n1C [compound 72]
≥ 90%: [1] | [2] | [3] | [4] | [5]

CCS(=O)(=O)c1cc(C(F)(F)F)cnc1-c1nc2cc(C(F)(F)C(F)(F)F)c[n+]([O-])c2n1C [compound 523]
≥ 90%: [2] | [3]

CCS(=O)(=O)c1cccnc1-c1nc2cc(S(=O)(=O)C(F)(F)F)ccc2n1C [compound 64]
≥ 90%: [1] | [2] | [3] | [5]

CCS(=O)(=O)c1cc(C(F)(F)C(F)(F)F)cnc1-c1nc2cc(C(F)(F)C(F)(F)F)cnc2n1C [compound 74]
≥ 90%: [2] | [3] | [4] | [5]

CCS(=O)(=O)c1cccnc1-c1nc2cc(S(F)(F)(F)(F)F)ccc2n1C [compound 24]
≥ 90%: [2] | [3] | [5]

CCS(=O)(=O)c1cc(C(F)(F)F)cnc1-c1nc2cc(C(F)(F)F)c(Cl)nc2n1C [compound 89]
≥ 90%: [2] | [3] | [4] | [5]

CCS(=O)(=O)c1cccnc1-c1nc2cc(C(F)(F)F)cc(S(C)(=O)=O)c2n1C [compound 515]
≥ 90%: [1] | [2] | [3] | [4] | [5]
